According to US20230203107A1, “PEPTIDE FOR TREATING SEPSIS DERIVED FROM RV3364C PROTEIN OF MYCOBACTERIUM TUBERCULOSIS” (priority 2021, published 2023):
These are yes or no findings as the source states them, for the method shown. Some entries that bind do so weakly or less than the wild type. Where a sequence is shown, tags or fusion partners need not be part of it.

Target: T1, EGFLAM (EGF-like Fibronectin type III and Laminin G domains), full-length recombinant human protein on the HuProt microarray (human) (UniProt Q63HQ2)
T1 sequence: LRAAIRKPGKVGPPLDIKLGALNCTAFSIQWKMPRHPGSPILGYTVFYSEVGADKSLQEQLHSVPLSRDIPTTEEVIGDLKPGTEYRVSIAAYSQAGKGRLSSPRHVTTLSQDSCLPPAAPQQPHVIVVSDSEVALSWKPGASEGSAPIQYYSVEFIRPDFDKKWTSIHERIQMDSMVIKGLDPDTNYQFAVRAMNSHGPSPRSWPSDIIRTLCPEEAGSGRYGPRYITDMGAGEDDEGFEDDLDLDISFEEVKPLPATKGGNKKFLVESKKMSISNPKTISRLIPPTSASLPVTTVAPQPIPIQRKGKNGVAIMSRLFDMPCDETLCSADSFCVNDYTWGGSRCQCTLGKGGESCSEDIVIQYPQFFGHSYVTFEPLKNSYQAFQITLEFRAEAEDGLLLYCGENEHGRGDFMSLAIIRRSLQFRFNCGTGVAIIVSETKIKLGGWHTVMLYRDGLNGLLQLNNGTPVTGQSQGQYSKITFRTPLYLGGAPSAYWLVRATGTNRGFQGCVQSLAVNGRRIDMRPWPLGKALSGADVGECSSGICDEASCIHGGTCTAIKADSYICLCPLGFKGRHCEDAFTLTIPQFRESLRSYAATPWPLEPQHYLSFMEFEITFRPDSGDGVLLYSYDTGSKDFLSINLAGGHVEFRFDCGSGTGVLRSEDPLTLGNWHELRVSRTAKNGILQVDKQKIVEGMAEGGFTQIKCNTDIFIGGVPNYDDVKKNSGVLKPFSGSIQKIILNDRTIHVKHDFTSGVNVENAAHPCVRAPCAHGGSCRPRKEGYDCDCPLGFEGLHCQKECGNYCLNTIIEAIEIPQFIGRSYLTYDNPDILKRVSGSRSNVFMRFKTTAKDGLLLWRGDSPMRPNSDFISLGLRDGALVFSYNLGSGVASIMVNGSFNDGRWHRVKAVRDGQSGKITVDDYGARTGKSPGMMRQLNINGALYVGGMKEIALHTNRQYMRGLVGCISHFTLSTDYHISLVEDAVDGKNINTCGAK
Experiment: HuProt human proteome microarray, biotinylated rRv3364c, streptavidin Alexa Fluor 532

B1: recombinant Rv3364c (rRv3364c) protein, N-terminal 6xHis tag (protein)
chain: MKARLPDSPLDWLVSKFAREVPGVAHALLVSVDGLPVAASEHLPRERADQLAAVTSGLASLAGGAAQLFDGGQVLQSVVEMQNGYLLLMQVGDGSALAALAATGCDIGQIGYEMAILVERVGGVVQSCRR
B1 was tested, and the binding was “binds”.
